Measurements reported in PubChem BioAssay AID1671195 (Yale University, 2021)
Screen: 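Knockdowns that increase or decrease uptake of fluorescent LDL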 (primary screen). Cell system: human Huh7 hepatoma cells. Reagents: siRNA pool against human genes, 18 nM. Time to read-out: about 2 to 2.5 days of knockdown, then 8 h LDL uptake. Conditions: DiI-labelled LDL at 30 µg/ml for 8 h, in lipoprotein-deficient serum medium. Detection: 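Fluorescent LDL signal imaged in cells, scaled to the plate median, robust z-score for each replicate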. Scale: robust z-score: higher = more LDL uptake after knockdown. Hit rule: 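a gene counts as active if at least two replicate z-scores exceed ±2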.
The deposit covers about 22,000 reagents; shown is an unselected part. About 1,510 of all reagents (6.9%) count as active. 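Active includes knockdowns raising or lowering LDL uptake; positive z-scores mean more uptake, negative mean less.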

gene symbol | robust z-score, replicate 1 | robust z-score, replicate 2 | robust z-score, replicate 3 | outcome
GSTA4 | -0.491 | 1.63 | -0.295 | inactive
HCG22 | -1.71 | -1.35 | -1.55 | inactive
TERF1 | 0.706 | 1.33 | 0.925 | inactive
LOC401589 | -0.474 | -0.428 | -0.613 | inactive
CRYZ | 0.765 | 0.257 | 1.18 | inactive
POLB | -0.651 | -0.804 | -0.811 | inactive
PPP2R1B | -0.245 | -0.663 | 0.0204 | inactive
FXR2 | 0.602 | 0.392 | 0.804 | inactive
FTSJ3 | 0.657 | -0.294 | 0.164 | inactive
FUNDC2 | -1.31 | -0.803 | -1.27 | inactive
ADGRE2 | -1.97 | -2.18 | -2.31 | active
AOX1 | -0.426 | 0.0151 | -0.29 | inactive

Continued; the last 3 above are carried over.
gene symbol | robust z-score, replicate 1 | robust z-score, replicate 2 | robust z-score, replicate 3 | outcome
FUNDC2 | -1.31 | -0.803 | -1.27 | inactive
ADGRE2 | -1.97 | -2.18 | -2.31 | active
AOX1 | -0.426 | 0.0151 | -0.29 | inactive
P2RY12 | 0.72 | 1.6 | 3.17 | inactive
SLN | 0.445 | 0.884 | 0.104 | inactive
LOC390244 (retired record) | -1.22 | -1.08 | -0.719 | inactive
HMCES | 0.62 | 0.0745 | -0.305 | inactive
LOC401495 (retired record) | 0.827 | 0.0915 | -0.202 | inactive
RNGTT | 1.36 | 1.24 | 0.959 | inactive
LCN10 | -1.28 | -1.07 | -0.749 | inactive
SCML1 | -1.26 | -1.55 | -1.62 | inactive
OR6C70 | 0.452 | 0.482 | 0.396 | inactive
WIPF1 | -0.849 | -1.06 | 0.201 | inactive
LOC440010 (retired record) | 1.34 | 1.29 | 1.11 | inactive
FHIP2B | -0.264 | -0.534 | -0.536 | inactive
MAP7D1 | -1.24 | -1.6 | 2.16 | inactive
CASR | 1.03 | 1.59 | 2.45 | inactive
SGCE | -0.472 | -1.14 | -0.407 | inactive
PRSS30P | -1.74 | -1.08 | -1.53 | inactive
